Results published in US20090191144A1, “USE OF LIPID COMPONENTS AGAINST POLLEN ALLERGIES” (BEIERSDORF AG, priority 2008, published 2009).
At least one structure is not confirmed: it was looked up by name or label, or the drawing left a doubt.

Experiment: Viscosity of preferred lipids
Type: physicochemical

With CCCCC(CC)COC(=O)C=Cc1ccc(OC)cc1 (stereo not shown) [Parsol MCX, Ethylhexyl Methoxycinnamate] the “Viskosity (in mPas) (s^−1 = 500)” value was 81.2 mPas.
